We go through 1 molecule from patent US20040072183A1, “Adhesive protein and uses thereof” (priority 2000, published 2004).

In the data set the test system is human skin. The experiment in a line: Ability to attach 1 cm^2 samples of KIM wipe paper or latex to human skin (forearm). Details: key to Attachment of LATEX to human skin / Attachment of KIM Wipe to human skin: none (−); very weak (+/−); weak (+); strong (++); very strong (+++).
Setting [1] is: Experiment II, samples observed for 20 minutes.

For the molecule `O` [Water], for the setting “Experiment I, sample detached on its own”, the “Time to detachment of LATEX sample from human skin” value turned out to be 10 min. Besides, the “Attachment of KIM Wipe to human skin” value is, setting by setting: (Experiment I, samples observed for 60 minutes, removed with forceps) “+”; under setting [1], “+”. Also, the “Attachment of LATEX to human skin” value is “+/−” under setting [1] and “+/−” (Experiment III, samples observed for 20 minutes). In addition, for the setting “Experiment III, sample detached on its own”, the “Time to detachment of KIM Wipe sample from human skin” value was 4 min.
